Results are given in words; binding and its absence hold for the method and conditions named. For part of these data: Binding seen in cells or lysates may run through a third protein. Some results given as binding are weak or reduced against the parent protein; the word gives no strength.

Protein sequences, listed by entry. Tags and fused reporters are not part of them. Chains listed by the source or under a name are the forms on record and can include a tag or linker. Residues count along the entry.
GST-Brk SH2 (recombinant GST-tagged SH2 domain of Brk) (Q13882, residues 78-170): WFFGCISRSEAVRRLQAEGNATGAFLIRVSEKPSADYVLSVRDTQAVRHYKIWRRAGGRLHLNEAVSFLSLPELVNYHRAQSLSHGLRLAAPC
UniProt P42685, residues 42-110: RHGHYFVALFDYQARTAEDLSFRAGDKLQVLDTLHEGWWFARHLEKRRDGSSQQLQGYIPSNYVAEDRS

In assay [1] the target is recombinant His-p27 (full-length p27Kip1, C-terminal histidine tag) (human) (UniProt P46527). The assay is described as follows: His pull-down (metal agarose chromatography), GST immunoblot. (Immunoblotting shows a protein as a band on a membrane.)
The target is the same in assay [2]. The assay is described as follows: His pull-down, summary of FIG. 3.
In assay [3] the target is His-p27 mutant ΔK1/K3 (PPPP91,92,94,95AAAA and PKKP188,189,190,191AAAA) (human) (UniProt P46527). The assay is described as follows: His pull-down (metal agarose chromatography), GST immunoblot, without ATP.
Assay [4] deals with recombinant His-p27 (full-length p27Kip1, C-terminal histidine tag) (human) (UniProt P46527). Described as above.
The target of assay [5] is recombinant His-cyclin D1-cdk4 complex (UniProt P24385). As to the kind of experiment: incubation of recombinant proteins, cdk4 immunoprecipitation.
Assay [6] concerns the target GST (GST domain expressed in the absence of any p27 or Brk sequence) [GST: P08515]. The assay is described as follows: phage-ELISA on immobilised GST. In general terms: In an ELISA, binding on a coated surface is turned into a signal by an enzyme label.
Assay [7] addresses recombinant His-p27 (full-length p27Kip1, C-terminal histidine tag) (human) (UniProt P46527). As to the kind of experiment: phage-ELISA on His-p27.
The target in assay [8] is endogenous p27 in breast cell lysates (human) (UniProt P46527). As to the kind of experiment: reciprocal co-immunoprecipitation from breast cell lysates (Brk IP / p27 blot, p27 IP / Brk blot).

On to “GST-Brk (full length GST-PTK6/Brk, SignalChem) (from UniProt Q13882 1-451) (enzyme)”, for which, in assay [1], the binding result is reported as “binds”.
For the substance “GST-Brk SH2 (recombinant GST-tagged SH2 domain of Brk) (from UniProt Q13882 78-170)”, the binding result in assay [2], in assay [3] and in assay [4] was “binds” each time.
As for “His-p27 mutant Y74F (from UniProt P46527 1-198)”, in assay [5], the binding result is listed as “binds”.
As to “His-p27 mutant Y88F (from UniProt P46527 1-198)”, in assay [5], the binding entry is “binds”.
For the substance “His-p27 mutant ΔK1 (PPPP91,92,94,95AAAA) (from UniProt P46527 1-198)”, the binding result in assay [5] is recorded as “binds”.
On the same count and under the same terms, the entry for “His-p27 mutant ΔK1/K3 (PPPP91,92,94,95AAAA and PKKP188,189,190,191AAAA) (from UniProt P46527 1-198)” is “binds”.
On to “SH3 domain of Frk displayed on phage (from UniProt P42685 42-110)”, for which the binding entry in assay [6] and in assay [7] was “binds” throughout.
With “endogenous Brk in breast cell lysates (MCF7, MDA MB 231, MCF10A) (from UniProt Q13882 1-451) (enzyme)”, the binding entry in assay [8] was “binds”.
On to “recombinant His-p27 (full-length p27Kip1, C-terminal histidine tag) (from UniProt P46527 1-198)”, for which the binding result in assay [5] is recorded as “binds”.
